No constants are given. Whether binding was seen depends on the method and setting. In cells and extracts the contact can be indirect. Some entries that bind do so weakly or less than the wild type.
Target: HIV-2 Rod9 Vpr, 3x FLAG-tagged (HIV-2 (isolate Rod9)) (UniProt P06938)
Assay: co-IP; 3x-FLAG Vpr precipitated with anti-FLAG affinity beads from RIPA lysates of transiently transfected U2OS cells; blot for endogenous DCAF1

Protein sequences, listed by entry. Tags and fused reporters are not part of them.
UniProt P06938: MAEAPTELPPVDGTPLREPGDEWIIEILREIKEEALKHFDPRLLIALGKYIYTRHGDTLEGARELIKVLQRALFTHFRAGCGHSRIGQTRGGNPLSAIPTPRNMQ
UniProt Q9Y4B6: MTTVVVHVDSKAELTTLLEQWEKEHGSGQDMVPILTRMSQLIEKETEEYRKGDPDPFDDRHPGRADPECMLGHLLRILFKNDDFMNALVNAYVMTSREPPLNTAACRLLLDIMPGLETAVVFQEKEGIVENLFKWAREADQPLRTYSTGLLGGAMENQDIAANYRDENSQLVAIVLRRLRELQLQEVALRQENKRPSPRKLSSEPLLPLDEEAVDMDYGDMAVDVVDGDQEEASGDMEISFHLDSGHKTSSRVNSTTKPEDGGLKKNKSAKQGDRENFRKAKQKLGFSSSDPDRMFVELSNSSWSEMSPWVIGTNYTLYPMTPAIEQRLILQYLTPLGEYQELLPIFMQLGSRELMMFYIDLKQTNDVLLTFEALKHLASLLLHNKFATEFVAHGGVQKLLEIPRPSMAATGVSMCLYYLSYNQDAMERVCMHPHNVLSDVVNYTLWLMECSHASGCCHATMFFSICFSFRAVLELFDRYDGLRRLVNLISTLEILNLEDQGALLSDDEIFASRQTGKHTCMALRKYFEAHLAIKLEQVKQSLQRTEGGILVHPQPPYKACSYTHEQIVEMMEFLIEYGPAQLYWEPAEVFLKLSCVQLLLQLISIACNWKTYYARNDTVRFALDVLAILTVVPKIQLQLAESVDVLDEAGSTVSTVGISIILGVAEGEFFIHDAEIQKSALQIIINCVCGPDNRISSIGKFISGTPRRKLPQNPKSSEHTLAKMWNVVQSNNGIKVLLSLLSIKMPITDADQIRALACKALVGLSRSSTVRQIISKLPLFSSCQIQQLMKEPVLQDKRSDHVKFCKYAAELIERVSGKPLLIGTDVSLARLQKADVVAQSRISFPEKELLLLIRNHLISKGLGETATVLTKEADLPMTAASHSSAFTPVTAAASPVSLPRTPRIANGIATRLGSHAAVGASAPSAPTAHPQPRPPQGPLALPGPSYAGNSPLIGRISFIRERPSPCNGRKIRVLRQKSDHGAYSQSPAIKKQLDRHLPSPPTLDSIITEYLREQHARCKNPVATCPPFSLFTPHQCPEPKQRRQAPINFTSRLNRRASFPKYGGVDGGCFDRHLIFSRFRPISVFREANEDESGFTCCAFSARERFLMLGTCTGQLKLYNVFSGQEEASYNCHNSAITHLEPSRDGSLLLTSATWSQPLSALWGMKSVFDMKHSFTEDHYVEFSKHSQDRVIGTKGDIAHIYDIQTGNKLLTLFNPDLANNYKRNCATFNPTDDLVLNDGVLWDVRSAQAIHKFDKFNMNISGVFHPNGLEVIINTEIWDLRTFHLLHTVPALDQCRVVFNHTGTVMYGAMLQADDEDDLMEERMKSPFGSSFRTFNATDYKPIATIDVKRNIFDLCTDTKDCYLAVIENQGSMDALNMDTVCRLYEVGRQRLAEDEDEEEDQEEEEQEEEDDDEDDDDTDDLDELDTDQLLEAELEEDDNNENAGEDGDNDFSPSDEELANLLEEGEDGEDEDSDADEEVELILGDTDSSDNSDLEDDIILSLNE

Substance: DCAF1, endogenous human (from UniProt Q9Y4B6 1-1507)
- binding: binds

Source: article PMC7407082
